Source: the supplement of paper PMC6411743
± gives the standard deviation of the averaged measurements. The list shows a part of the results.

By UniProt entry, the sequences of proteins in these tests, tags left out. Where a name states a change or a piece, a line headed by the entry shows the natural chain unless it says otherwise.
UniProt P26599: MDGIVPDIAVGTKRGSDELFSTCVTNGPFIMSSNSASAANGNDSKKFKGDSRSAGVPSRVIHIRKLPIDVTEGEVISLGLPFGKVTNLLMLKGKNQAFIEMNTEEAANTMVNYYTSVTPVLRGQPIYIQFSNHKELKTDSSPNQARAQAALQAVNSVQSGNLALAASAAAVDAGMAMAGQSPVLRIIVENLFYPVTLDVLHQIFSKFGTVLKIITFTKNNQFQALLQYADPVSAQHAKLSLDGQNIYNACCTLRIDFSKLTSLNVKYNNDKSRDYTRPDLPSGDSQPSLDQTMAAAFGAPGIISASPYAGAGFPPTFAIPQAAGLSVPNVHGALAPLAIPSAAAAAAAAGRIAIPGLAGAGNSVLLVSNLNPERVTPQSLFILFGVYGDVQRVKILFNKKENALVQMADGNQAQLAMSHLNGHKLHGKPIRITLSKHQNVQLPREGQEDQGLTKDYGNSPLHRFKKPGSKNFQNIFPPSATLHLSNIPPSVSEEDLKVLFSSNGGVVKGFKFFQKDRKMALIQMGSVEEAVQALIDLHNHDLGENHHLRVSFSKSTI
UniProt Q14517: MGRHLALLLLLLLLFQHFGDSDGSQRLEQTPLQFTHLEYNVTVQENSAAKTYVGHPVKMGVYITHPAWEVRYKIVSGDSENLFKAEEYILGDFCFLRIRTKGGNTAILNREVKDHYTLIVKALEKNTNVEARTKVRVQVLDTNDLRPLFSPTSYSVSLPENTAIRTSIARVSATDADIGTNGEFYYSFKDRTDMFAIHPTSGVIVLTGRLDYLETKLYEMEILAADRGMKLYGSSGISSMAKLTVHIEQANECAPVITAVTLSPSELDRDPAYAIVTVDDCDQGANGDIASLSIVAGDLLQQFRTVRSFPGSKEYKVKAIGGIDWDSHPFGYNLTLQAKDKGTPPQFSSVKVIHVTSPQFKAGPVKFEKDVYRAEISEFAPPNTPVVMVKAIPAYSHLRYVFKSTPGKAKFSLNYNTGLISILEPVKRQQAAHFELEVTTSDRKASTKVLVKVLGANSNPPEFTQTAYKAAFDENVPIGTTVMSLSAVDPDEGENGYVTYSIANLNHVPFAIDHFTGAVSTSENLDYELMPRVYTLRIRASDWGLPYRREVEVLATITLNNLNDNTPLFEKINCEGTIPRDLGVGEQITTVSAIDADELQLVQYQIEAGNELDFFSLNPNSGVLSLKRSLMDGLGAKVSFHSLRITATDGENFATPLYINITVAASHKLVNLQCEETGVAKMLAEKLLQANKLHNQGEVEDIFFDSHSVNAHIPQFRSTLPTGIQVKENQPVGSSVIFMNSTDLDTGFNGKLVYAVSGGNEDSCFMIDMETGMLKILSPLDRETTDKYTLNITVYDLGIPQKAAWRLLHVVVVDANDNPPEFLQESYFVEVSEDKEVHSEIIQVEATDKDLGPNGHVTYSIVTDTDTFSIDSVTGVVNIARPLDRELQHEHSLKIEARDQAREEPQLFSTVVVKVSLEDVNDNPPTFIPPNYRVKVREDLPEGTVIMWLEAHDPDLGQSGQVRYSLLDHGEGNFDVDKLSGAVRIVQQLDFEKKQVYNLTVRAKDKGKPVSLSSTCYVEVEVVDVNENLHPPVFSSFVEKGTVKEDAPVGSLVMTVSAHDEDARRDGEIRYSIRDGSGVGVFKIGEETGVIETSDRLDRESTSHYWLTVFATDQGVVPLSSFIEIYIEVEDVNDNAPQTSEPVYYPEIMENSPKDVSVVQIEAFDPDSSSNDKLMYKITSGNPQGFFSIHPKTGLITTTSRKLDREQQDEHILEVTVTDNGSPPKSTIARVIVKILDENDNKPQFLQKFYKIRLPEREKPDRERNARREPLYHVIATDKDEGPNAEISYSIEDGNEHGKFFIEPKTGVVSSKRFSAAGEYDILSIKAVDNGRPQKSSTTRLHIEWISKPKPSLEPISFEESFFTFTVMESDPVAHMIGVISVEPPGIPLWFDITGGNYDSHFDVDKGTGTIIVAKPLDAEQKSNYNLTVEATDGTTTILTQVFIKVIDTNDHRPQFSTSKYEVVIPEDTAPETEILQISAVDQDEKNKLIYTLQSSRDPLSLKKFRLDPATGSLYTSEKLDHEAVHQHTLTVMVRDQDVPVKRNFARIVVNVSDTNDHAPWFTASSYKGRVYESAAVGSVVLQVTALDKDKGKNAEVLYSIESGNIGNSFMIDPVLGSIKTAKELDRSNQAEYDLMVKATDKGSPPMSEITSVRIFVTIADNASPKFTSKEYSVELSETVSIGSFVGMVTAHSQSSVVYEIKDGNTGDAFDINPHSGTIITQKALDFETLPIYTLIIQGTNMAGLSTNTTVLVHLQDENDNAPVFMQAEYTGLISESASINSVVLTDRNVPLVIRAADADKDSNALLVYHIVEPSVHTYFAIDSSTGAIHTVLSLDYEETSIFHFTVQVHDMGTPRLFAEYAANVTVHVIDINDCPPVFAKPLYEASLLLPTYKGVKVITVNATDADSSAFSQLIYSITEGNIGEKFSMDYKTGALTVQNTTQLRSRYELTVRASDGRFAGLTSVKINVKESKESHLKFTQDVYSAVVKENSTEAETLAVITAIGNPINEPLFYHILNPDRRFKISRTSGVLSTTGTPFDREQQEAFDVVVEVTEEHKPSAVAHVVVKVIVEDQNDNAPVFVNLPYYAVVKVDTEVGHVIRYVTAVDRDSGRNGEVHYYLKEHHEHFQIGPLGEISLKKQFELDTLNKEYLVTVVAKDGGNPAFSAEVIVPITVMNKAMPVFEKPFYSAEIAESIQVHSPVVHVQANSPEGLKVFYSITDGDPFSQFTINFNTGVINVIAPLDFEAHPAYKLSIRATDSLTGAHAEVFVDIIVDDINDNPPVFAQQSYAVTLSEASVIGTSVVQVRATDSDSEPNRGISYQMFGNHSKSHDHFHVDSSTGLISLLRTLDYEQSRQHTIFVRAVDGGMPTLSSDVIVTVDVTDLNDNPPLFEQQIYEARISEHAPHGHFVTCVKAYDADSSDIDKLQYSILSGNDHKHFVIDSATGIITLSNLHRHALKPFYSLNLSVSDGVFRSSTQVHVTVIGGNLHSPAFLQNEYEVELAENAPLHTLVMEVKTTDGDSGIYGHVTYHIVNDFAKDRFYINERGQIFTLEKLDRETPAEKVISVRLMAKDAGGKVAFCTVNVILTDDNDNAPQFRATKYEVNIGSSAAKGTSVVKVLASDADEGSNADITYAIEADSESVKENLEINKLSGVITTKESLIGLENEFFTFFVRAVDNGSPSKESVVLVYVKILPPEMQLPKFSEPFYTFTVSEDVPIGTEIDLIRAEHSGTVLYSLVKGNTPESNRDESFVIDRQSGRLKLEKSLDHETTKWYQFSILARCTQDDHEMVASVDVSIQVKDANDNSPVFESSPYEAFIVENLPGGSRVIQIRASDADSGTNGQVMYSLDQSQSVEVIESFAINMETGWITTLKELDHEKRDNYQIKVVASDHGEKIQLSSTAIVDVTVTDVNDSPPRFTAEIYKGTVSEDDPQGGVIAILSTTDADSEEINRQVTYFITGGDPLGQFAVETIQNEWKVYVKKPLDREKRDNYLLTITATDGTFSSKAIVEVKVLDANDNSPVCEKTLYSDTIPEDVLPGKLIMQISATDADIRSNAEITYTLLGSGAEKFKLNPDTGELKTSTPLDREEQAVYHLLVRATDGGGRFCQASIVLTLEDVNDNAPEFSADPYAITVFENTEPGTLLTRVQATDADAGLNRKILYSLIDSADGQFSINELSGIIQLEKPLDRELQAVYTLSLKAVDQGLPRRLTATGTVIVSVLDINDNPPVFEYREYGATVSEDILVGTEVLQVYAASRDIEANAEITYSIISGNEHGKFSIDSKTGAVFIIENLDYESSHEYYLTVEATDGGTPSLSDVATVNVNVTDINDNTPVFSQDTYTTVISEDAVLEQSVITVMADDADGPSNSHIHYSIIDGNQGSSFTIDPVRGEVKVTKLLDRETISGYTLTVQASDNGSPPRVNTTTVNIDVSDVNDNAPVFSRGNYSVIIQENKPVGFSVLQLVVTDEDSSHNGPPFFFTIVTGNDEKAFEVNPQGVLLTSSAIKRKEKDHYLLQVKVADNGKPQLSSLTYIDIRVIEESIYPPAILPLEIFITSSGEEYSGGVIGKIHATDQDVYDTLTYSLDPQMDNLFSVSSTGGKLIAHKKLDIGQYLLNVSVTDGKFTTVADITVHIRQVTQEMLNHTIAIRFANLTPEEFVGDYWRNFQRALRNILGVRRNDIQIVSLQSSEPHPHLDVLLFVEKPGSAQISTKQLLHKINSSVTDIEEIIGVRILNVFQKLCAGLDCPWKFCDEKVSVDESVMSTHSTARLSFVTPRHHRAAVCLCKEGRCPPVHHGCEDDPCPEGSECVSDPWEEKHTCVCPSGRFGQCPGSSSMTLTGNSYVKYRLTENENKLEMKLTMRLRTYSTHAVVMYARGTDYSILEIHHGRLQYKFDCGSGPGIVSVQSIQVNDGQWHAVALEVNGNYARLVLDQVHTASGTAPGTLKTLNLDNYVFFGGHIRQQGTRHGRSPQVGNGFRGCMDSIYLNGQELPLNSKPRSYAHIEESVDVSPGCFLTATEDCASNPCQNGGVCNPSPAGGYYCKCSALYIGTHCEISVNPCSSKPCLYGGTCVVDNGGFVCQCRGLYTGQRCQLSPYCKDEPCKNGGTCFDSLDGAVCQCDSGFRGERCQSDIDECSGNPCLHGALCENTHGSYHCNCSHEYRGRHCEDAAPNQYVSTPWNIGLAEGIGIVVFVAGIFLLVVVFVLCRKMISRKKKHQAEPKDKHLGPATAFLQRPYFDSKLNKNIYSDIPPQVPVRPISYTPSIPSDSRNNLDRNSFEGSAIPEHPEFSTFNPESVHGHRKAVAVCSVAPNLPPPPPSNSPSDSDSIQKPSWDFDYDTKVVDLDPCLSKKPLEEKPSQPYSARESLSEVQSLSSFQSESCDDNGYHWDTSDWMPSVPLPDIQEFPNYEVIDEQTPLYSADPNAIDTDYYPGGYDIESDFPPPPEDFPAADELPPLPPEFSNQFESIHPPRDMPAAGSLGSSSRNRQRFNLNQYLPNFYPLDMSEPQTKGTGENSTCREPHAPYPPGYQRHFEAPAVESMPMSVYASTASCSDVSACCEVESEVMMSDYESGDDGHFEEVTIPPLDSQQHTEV
UniProt Q9Y6I9: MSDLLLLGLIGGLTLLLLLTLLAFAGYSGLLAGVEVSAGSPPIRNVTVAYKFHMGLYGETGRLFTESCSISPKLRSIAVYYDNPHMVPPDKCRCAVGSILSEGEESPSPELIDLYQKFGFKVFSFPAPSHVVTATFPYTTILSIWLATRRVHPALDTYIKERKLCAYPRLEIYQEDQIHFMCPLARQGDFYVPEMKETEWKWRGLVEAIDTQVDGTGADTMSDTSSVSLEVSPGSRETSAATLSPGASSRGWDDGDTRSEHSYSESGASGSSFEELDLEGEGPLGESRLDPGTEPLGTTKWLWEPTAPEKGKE
UniProt Q8NB49: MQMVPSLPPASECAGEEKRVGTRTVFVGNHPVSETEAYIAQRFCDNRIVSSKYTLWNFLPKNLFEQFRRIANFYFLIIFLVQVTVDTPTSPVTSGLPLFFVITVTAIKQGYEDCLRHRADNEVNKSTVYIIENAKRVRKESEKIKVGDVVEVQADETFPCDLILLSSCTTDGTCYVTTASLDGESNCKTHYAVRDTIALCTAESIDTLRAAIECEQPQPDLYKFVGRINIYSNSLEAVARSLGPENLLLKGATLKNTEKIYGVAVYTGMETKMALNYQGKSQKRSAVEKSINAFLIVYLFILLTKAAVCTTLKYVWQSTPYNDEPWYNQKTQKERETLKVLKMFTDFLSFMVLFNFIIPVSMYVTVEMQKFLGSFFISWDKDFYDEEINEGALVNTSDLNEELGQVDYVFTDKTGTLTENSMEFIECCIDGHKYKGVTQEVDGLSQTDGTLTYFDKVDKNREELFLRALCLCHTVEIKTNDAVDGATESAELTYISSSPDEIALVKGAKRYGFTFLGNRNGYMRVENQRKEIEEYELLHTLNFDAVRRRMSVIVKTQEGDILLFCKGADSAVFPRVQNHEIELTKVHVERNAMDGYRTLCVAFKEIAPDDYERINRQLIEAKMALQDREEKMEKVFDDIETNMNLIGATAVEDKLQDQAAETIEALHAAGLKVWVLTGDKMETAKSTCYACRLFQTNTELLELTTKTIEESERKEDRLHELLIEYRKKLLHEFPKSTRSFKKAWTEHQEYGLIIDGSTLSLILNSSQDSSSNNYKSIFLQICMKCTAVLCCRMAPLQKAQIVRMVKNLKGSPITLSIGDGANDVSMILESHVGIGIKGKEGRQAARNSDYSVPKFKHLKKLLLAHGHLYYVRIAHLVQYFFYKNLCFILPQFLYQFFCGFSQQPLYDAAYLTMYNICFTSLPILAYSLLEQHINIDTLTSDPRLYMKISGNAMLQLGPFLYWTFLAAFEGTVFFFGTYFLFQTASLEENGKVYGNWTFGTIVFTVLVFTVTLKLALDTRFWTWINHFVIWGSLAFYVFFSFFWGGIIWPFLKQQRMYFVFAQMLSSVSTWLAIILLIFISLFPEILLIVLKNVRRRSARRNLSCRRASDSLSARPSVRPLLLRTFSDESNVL

Compound: Nc1nc2c(ncn2[C@@H]2O[C@H](COP(=O)(O)OP(=O)(O)OP(=O)(O)O)[C@@H](O)[C@H]2O)c(=O)[nH]1 [guanosine triphosphate]
Experiment: NP40-soluble protein abundance relative to vehicle (solubility fold change) (ratio); higher = more soluble protein in presence of GTP
Description: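 Solubility proteome profiling in Jurkat crude lysate. Lysate was treated with Mg-GTP (0.1-10 mM) for 10 min at room temperature and 3 min at 37 °C, then solubilised with 0.8% NP40 and benzonase, followed by ultracentrifugation. Proteins were quantified by TMT10 LC-MS/MS; the value is the NP40-soluble abundance relative to the NP40-processed vehicle, from 3 independent experiments.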

Target	NP40-soluble protein abundance (concentration: 0.1mM)	NP40-soluble protein abundance (concentration: 0.5mM)	NP40-soluble protein abundance (concentration: 1mM)	NP40-soluble protein abundance (concentration: 2mM)	NP40-soluble protein abundance (concentration: 4mM)	NP40-soluble protein abundance (concentration: 6mM)	NP40-soluble protein abundance (concentration: 8mM)	NP40-soluble protein abundance (concentration: 10mM)
A0A087WUW5|A0A0U1RRM4|A6NLN1 and related entries (UniProt P26599)	0.954 ± 0.078	0.949 ± 0.079	0.933 ± 0.072	0.879 ± 0.078	0.887 ± 0.073	0.894 ± 0.068	0.901 ± 0.073	0.896 ± 0.074
A0A087WVP1|Q14517 (UniProt Q14517)	1.07 ± 0.039	1.09 ± 0.064	1.15 ± 0.03	1.14 ± 0.054	1.19 ± 0.081	1.15 ± 0.076	1.23 ± 0.16	1.2 ± 0.17
A0A087WTU3|Q9Y6I9 (UniProt Q9Y6I9)	0.968 ± 0.064	0.976 ± 0.098	0.97 ± 0.088	0.934 ± 0.1	0.94 ± 0.12	0.93 ± 0.13	0.934 ± 0.096	0.931 ± 0.1
A0A067XG54|Q8NB49 and related entries (UniProt Q8NB49)	1.11 ± 0.11	1.09 ± 0.11	1.08 ± 0.1	1.04 ± 0.11	1.13 ± 0.15	1.03 ± 0.15	1.06 ± 0.046	0.959 ± 0.12
A0A087WV66|P46013 and related entries (UniProt P46013)	0.93 ± 0.047	0.942 ± 0.076	0.977 ± 0.069	0.957 ± 0.11	0.956 ± 0.11	0.987 ± 0.12	1.02 ± 0.078	1.03 ± 0.09
